PubChem BioAssay AID1671195 – Yale University | 2021
Aim: 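Genes whose knockdown alters LDL uptake in liver cancer cells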 (primary screen). Cell system: human Huh7 hepatoma cells. Knock-down reagent: siRNA pool against human genes, 18 nM. Timing: about 2 to 2.5 days of knockdown, then 8 h LDL uptake. Treatment: DiI-labelled LDL at 30 µg/ml for 8 h, in lipoprotein-deficient serum medium. Measurement: 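Per-cell DiI-LDL intensity by automated imaging; well means scaled to the plate median and given as a robust z-score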. Direction: robust z-score: higher = more LDL uptake after knockdown. Active means: 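Active when two or more replicates show a robust z-score above 2 or below -2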.
Shown is an unselected part of about 22,000 deposited reagents. About 1,510 of them (6.9%) count as active. 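Active includes knockdowns raising or lowering LDL uptake; positive z-scores mean more uptake, negative mean less.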 No sequences are given here.

PLCB3 (phospholipase C beta 3) | robust z-score, replicate 1: 0.603; robust z-score, replicate 2: 0.792; robust z-score, replicate 3: 0.73; Outcome: inactive
CTNNBIP1 (catenin beta interacting protein 1) | robust z-score, replicate 1: -0.761; robust z-score, replicate 2: -1.12; robust z-score, replicate 3: -0.934; Outcome: inactive
ZNF616 (zinc finger protein 616) | robust z-score, replicate 1: -0.67; robust z-score, replicate 2: -0.368; robust z-score, replicate 3: -0.763; Outcome: inactive
LOC390704 (retired record) | robust z-score, replicate 1: -0.876; robust z-score, replicate 2: -0.818; robust z-score, replicate 3: -0.632; Outcome: inactive
TENM3-AS1 (TENM3 antisense RNA 1) | robust z-score, replicate 1: -0.493; robust z-score, replicate 2: -0.331; robust z-score, replicate 3: -0.563; Outcome: inactive
AKR1C3 (aldo-keto reductase family 1 member C3) | robust z-score, replicate 1: -0.141; robust z-score, replicate 2: -0.0943; robust z-score, replicate 3: -0.362; Outcome: inactive
MRGPRX4 (MAS related GPR family member X4) | robust z-score, replicate 1: -0.677; robust z-score, replicate 2: -0.506; robust z-score, replicate 3: -0.0392; Outcome: inactive
ACP4 (acid phosphatase 4) | robust z-score, replicate 1: -0.832; robust z-score, replicate 2: -0.979; robust z-score, replicate 3: -0.668; Outcome: inactive
H2BC21 (H2B clustered histone 21) | robust z-score, replicate 1: 1.28; robust z-score, replicate 2: 1.28; robust z-score, replicate 3: 1.84; Outcome: inactive

3 of these entries, reformatted:
{"gene": "ZNF616 (zinc finger protein 616)", "robust z-score, replicate 1": -0.67, "robust z-score, replicate 2": -0.368, "robust z-score, replicate 3": -0.763, "Outcome": "inactive"}
{"gene": "LOC390704 (retired record)", "robust z-score, replicate 1": -0.876, "robust z-score, replicate 2": -0.818, "robust z-score, replicate 3": -0.632, "Outcome": "inactive"}
{"gene": "TENM3-AS1 (TENM3 antisense RNA 1)", "robust z-score, replicate 1": -0.493, "robust z-score, replicate 2": -0.331, "robust z-score, replicate 3": -0.563, "Outcome": "inactive"}

Next entries follow:
CNMD (chondromodulin) | robust z-score, replicate 1: 0.86; robust z-score, replicate 2: 0.332; robust z-score, replicate 3: 0.183; Outcome: inactive
LOC388681 (retired record) | robust z-score, replicate 1: -0.29; robust z-score, replicate 2: -0.876; robust z-score, replicate 3: -0.972; Outcome: inactive
AMIGO2 (adhesion molecule with Ig like domain 2) | robust z-score, replicate 1: -0.427; robust z-score, replicate 2: -0.333; robust z-score, replicate 3: 0.0528; Outcome: inactive
MMEL1 (membrane metalloendopeptidase like 1) | robust z-score, replicate 1: -0.791; robust z-score, replicate 2: -0.818; robust z-score, replicate 3: -0.462; Outcome: inactive
STK32A (serine/threonine kinase 32A) | robust z-score, replicate 1: 2.17; robust z-score, replicate 2: 0.0573; robust z-score, replicate 3: 1.48; Outcome: inactive
CD44 (CD44 molecule (IN blood group)) | robust z-score, replicate 1: 1.6; robust z-score, replicate 2: 1; robust z-score, replicate 3: 0.749; Outcome: inactive
HNRNPA1P39 (heterogeneous nuclear ribonucleoprotein A1 pseudogene 39) | robust z-score, replicate 1: -0.927; robust z-score, replicate 2: -0.112; robust z-score, replicate 3: -0.357; Outcome: inactive
